According to the supplement of paper PMC7666118:
This is one part of the list.

Amino acid sequences for entries named in this document (tags omitted). A change or cut given only in a name is not applied to a line headed by its entry.
UniProt P07910: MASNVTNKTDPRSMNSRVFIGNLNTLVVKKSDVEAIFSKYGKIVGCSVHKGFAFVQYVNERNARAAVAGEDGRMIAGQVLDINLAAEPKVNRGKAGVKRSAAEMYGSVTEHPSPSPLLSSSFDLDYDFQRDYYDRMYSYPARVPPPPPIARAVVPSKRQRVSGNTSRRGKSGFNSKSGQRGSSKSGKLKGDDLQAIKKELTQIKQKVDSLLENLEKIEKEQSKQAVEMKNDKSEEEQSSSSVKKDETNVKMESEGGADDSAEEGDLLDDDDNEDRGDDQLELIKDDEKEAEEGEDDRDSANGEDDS
UniProt Q92993, whole entry, looked up: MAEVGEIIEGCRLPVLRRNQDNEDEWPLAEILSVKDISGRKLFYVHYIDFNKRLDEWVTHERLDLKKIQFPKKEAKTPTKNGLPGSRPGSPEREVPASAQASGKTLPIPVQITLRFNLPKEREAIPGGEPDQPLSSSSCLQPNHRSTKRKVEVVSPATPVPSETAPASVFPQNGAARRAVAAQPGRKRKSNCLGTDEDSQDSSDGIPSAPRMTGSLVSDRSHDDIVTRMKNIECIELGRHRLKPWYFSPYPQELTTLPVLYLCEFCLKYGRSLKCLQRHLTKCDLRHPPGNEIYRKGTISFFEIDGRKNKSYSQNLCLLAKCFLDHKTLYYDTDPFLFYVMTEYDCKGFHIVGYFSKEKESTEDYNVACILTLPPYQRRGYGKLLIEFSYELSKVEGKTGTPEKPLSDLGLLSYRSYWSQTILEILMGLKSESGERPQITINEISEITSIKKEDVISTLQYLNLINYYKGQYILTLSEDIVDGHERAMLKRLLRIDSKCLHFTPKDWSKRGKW
UniProt P11021: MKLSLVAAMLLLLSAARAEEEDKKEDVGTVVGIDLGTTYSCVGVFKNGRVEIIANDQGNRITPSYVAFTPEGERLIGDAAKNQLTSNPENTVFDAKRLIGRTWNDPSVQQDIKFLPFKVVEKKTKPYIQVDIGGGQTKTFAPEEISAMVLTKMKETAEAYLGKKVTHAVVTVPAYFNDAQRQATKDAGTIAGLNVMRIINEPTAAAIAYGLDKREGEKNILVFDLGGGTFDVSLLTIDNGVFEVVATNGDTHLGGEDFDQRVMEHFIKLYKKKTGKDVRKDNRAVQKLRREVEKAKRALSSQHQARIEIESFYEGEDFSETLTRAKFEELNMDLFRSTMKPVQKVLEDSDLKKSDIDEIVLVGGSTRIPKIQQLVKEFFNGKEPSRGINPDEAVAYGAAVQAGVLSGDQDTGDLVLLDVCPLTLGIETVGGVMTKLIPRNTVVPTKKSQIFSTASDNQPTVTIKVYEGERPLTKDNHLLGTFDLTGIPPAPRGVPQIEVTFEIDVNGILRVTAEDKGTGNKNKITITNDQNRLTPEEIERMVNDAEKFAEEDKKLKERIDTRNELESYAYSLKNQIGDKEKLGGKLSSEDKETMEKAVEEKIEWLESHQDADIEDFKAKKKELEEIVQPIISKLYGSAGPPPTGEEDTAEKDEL
UniProt Q9NWZ3, whole entry: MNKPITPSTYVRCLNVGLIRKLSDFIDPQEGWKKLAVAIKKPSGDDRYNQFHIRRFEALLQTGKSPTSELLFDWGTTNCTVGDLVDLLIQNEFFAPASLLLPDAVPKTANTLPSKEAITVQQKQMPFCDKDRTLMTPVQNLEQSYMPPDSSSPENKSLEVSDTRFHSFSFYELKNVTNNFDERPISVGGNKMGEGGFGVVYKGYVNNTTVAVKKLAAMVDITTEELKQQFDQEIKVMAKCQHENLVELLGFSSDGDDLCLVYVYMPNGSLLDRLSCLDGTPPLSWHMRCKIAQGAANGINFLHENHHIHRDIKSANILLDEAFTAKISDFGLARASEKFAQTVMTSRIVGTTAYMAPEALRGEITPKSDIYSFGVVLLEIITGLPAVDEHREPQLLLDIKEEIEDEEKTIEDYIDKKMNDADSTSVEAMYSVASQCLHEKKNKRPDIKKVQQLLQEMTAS
UniProt Q14145, whole entry: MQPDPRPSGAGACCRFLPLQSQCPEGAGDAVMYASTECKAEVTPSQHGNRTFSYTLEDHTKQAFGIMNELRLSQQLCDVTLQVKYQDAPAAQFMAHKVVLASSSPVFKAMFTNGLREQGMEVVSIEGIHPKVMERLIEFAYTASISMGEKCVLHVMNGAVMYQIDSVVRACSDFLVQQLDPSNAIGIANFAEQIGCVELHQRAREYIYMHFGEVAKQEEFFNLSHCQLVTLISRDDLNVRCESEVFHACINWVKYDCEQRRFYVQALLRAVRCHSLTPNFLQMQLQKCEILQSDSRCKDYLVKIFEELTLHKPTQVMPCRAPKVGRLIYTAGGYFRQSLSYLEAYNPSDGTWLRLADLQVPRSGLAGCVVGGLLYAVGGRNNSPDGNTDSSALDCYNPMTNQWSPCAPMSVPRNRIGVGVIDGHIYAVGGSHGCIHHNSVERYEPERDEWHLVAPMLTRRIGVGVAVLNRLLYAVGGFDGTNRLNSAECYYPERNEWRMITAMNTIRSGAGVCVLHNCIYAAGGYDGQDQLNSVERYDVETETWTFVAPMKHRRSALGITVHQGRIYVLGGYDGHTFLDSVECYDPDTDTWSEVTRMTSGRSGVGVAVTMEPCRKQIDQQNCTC
UniProt P32942: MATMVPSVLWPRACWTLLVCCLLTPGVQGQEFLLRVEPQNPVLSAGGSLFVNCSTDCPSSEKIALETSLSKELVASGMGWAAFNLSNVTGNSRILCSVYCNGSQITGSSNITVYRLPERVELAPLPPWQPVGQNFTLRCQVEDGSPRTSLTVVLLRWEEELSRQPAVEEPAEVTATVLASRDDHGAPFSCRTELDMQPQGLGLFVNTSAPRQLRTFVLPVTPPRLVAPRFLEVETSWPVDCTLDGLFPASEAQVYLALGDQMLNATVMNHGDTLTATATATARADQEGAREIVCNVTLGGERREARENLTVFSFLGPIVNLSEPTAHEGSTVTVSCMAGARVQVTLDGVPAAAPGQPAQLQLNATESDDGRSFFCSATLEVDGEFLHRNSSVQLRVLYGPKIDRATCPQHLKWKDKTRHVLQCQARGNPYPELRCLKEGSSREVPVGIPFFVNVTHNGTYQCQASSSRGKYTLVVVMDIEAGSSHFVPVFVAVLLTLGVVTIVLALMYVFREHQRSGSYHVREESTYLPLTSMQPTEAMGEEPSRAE
UniProt Q99714: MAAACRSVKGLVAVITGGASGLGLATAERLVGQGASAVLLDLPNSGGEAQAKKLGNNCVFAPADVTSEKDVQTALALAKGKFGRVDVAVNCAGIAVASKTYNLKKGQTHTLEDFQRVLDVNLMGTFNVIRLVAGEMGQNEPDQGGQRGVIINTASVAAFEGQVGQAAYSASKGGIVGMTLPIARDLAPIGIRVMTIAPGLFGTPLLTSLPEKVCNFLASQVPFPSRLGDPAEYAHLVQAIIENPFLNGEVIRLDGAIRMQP
UniProt Q14573, whole entry: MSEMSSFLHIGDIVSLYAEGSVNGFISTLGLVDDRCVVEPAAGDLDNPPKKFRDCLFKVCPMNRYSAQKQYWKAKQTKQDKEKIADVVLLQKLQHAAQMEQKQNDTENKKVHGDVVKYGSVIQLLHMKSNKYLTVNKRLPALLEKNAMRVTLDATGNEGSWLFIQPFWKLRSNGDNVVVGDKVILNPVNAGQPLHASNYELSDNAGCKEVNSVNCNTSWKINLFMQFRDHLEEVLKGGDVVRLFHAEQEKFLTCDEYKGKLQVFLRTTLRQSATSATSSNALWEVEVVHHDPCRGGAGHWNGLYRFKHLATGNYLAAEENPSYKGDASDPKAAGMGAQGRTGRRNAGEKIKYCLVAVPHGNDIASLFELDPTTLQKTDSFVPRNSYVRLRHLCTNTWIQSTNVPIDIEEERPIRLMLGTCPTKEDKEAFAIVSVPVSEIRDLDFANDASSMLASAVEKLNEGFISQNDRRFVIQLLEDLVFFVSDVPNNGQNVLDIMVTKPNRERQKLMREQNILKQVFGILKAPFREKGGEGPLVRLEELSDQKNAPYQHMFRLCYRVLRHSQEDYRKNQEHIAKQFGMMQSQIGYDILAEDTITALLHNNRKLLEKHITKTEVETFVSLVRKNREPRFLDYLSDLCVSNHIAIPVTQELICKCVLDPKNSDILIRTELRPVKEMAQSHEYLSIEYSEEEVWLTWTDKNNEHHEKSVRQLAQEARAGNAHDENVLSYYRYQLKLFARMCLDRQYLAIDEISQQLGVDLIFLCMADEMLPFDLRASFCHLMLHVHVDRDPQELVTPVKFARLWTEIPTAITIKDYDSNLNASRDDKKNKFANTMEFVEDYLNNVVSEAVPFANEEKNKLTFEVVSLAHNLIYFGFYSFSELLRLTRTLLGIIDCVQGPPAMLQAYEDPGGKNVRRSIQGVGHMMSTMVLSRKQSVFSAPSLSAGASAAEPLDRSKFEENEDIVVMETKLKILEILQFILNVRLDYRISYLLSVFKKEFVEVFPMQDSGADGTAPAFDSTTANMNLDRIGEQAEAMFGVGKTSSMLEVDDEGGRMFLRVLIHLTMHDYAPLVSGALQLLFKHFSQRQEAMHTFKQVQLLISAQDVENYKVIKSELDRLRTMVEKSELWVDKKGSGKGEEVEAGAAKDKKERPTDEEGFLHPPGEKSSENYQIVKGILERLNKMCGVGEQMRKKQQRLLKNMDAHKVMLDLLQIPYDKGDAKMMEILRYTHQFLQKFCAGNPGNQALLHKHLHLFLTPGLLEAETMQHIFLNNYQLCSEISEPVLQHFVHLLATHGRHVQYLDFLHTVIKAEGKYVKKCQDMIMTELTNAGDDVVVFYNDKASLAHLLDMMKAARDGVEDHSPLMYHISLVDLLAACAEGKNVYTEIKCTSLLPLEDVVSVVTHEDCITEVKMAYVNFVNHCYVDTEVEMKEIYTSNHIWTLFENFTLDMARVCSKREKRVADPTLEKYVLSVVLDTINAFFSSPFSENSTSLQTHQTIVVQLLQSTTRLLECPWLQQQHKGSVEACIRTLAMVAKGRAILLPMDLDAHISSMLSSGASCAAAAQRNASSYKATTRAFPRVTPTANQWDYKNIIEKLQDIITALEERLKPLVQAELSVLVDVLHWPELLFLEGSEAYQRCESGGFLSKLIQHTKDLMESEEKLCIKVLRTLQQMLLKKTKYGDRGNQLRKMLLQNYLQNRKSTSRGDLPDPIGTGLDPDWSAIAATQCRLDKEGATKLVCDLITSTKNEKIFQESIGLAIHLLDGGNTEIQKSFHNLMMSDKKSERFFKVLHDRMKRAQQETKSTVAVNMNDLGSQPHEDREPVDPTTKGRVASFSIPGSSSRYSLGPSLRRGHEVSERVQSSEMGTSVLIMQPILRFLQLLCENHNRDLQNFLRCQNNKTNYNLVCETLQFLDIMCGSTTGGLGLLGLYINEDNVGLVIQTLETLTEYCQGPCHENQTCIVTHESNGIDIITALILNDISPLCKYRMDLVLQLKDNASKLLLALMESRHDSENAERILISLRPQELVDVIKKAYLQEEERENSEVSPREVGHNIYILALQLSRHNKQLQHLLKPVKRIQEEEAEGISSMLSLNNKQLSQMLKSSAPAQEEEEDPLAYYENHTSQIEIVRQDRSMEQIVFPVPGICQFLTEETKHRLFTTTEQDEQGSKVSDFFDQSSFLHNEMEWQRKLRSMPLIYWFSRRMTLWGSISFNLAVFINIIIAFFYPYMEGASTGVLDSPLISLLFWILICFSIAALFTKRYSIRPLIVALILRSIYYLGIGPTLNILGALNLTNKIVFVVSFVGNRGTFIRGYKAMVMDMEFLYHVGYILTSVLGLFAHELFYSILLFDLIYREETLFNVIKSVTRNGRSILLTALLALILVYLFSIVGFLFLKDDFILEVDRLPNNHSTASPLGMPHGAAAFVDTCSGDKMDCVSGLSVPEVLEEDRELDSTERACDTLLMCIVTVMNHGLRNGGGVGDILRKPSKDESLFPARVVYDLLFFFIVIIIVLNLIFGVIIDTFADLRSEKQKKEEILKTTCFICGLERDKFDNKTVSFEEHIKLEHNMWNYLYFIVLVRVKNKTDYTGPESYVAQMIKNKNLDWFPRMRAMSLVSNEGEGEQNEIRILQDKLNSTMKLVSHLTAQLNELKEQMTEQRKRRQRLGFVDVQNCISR
UniProt Q9H9V9: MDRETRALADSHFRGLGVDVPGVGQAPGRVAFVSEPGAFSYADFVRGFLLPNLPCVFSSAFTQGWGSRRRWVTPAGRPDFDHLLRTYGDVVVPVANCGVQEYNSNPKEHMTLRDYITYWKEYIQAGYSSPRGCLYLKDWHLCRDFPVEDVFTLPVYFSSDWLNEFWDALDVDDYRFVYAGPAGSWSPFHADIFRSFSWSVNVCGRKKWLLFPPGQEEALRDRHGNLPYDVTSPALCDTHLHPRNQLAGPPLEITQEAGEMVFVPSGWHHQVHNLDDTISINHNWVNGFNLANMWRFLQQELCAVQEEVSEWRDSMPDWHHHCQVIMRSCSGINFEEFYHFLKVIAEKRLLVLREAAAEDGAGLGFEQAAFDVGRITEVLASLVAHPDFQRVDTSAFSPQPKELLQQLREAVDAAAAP

Compound: COc1ccc(Cn2ccc3ccc(C(=O)NO)cc32)cc1
Experiment: dose-dependent thermal stabilisation call (2D-TPP, DLPTP, 10% FDR) (binary (1 = stabilised)); higher = stabilised by the compound
Settings: system: HL-60 intact cells; concentration range 0.04-10 µM

| Target | dose-dependent thermal stabilisation call |
| --- | --- |
| KARS (UniProt Q15046) | inactive: 0 |
| JMJD7 (UniProt P0C870) | inactive: 0 |
| ITFG3 (UniProt Q9H0X4) | inactive: 0 |
| KHDRBS1 (UniProt Q07666) | inactive: 0 |
| HSD17B11 (UniProt Q8NBQ5) | inactive: 0 |
| HNRNPC (UniProt P07910) | inactive: 0 |
| ITSN1 (UniProt Q15811) | inactive: 0 |
| IARS2 (UniProt Q9NSE4) | inactive: 0 |
| ITCH (UniProt Q96J02) | inactive: 0 |
| KIAA0430 (UniProt Q9Y4F3) | inactive: 0 |
| IL16 (UniProt Q14005) | inactive: 0 |
| KDELC1 (UniProt Q6UW63) | inactive: 0 |
| IFI16 (UniProt Q16666) | inactive: 0 |
| IMPACT (UniProt Q9P2X3) | inactive: 0 |
| HNRNPR (UniProt O43390) | inactive: 0 |
| IFI30 (UniProt P13284) | inactive: 0 |
| IRF2BP1 (UniProt Q8IU81) | inactive: 0 |
| HPDL (UniProt Q96IR7) | inactive: 0 |
| ITPRIP (UniProt Q8IWB1) | inactive: 0 |

An excerpt of these results, with tabs:
Target	dose-dependent thermal stabilisation call
IFI30 (UniProt P13284)	inactive: 0
IRF2BP1 (UniProt Q8IU81)	inactive: 0
HPDL (UniProt Q96IR7)	inactive: 0

Following part

| Target | dose-dependent thermal stabilisation call |
| --- | --- |
| KAT5 (UniProt Q92993) | inactive: 0 |
| ICA1 (UniProt Q05084) | inactive: 0 |
| HNRNPM (UniProt P52272) | inactive: 0 |
| HSPA5 (UniProt P11021) | inactive: 0 |
| IRAK4 (UniProt Q9NWZ3) | inactive: 0 |
| KIAA0391 (UniProt O15091) | inactive: 0 |
| IQGAP2 (UniProt Q13576) | inactive: 0 |
| KEAP1 (UniProt Q14145) | inactive: 0 |
| ICAM3 (UniProt P32942) | inactive: 0 |
| INCENP (UniProt Q9NQS7) | inactive: 0 |
| IL2RG (UniProt P31785) | inactive: 0 |
| IMP4 (UniProt Q96G21) | inactive: 0 |
| KCTD3 (UniProt Q9Y597) | inactive: 0 |
| HSD17B10 (UniProt Q99714) | inactive: 0 |
| IK (UniProt Q13123) | inactive: 0 |
| ITPR3 (UniProt Q14573) | inactive: 0 |
| JMJD8 (UniProt Q96S16) | inactive: 0 |
| JMJD4 (UniProt Q9H9V9) | inactive: 0 |
